Measurements published in patent US20240342244A1, “Isthmin Protein Therapeutics for the Treatment of Non-Alcoholic Fatty Liver Disease” (The Board of Trustees of the Leland Stanford Junior …, priority 2021, published 2024).
At least one structure is not confirmed: it was looked up by name or label, or the drawing left a doubt.

How the values were obtained:
Type in all cases: cell-based
pAKT^S473 [1] = experiment: Signaling induced by ISM1 or insulin in 3T3-F442A cells pre-treated with inhibitors; details: ISM1 100 nM or insulin 100 nM
Procedure: Western blots and molecular analyses. For western blotting, homogenized tissues or whole-cell lysates, samples were lysed in RIPA buffer containing protease inhibitor cocktail (Roche) and phosphatase inhibitor cocktail (Roche). Cell lysates were centrifuged at 14,000×g for 15 min and supernatants were prepared in 4×LDS Sample Buffer (Invitrogen) and separated by SDS-PAGE and transferred to Immobilon 0.45 μm membranes (Millipore). For Western blotting of plasma samples, 1 μl of plasma was prepared in 2× sample buffer (Invitrogen) with reducing agent, boiled, and analyzed using Western blot against indicated antibody. Protein kinase array (R&D systems ARY003B) was performed according to the manufacturers' description. All antibodies used in this paper are described in STAR methods.

pAKT^S473 [2] = experiment: pAKT S473 western blot in primary mouse adipocytes; details: ISM1 100 nM, 5 min
Procedure: Mouse and human pre-adipocytes culture and differentiation. Inguinal fat pads from 4-8 week old C57BL/6J male and female mice were dissected and mechanically digested for 10 min using spring scissors. Digested tissues were incubated in WAT isolation buffer (10 ml PBS, 2.4 U/ml dispase II (#04942078001, Roche), 10 mg/ml collagenase D (#11088858001, Roche) at 37° C. for 45 min. 20 mL growth media was added and the tissue suspension was filtered through a 100-μm cell strainer and centrifuged at 600×g for 5 min. The cell pellets were resuspended in 20 mL growth media, filtered through a 40-μm cell strainer, centrifuged at 600×g for 5 min, resuspended in 10 mL growth media, and plated in 10-cm collagen-coated dishes. The cells were cultured in growth media (DMEM/F-12 Glutamax, Thermo Fisher Scientific #10565018) supplemented with 10% fetal bovine serum. Two days post-confluency, differentiation was induced with growth media containing 1 μM rosiglitazone, 0.5 mM isobutylmethylxanthine, 1 μM dexamethasone, 5 μg/mL insulin. After two days, cells were re-fed with growth media containing 1 μM rosiglitazone and 5 μg/mL insulin. […]
Western blots and molecular analyses. […] For Western blotting of plasma samples, 1 μl of plasma was prepared in 2× sample buffer (Invitrogen) with reducing agent, boiled, and analyzed using Western blot against indicated antibody. […]

primary mouse adipocytes = experiment: 2-deoxy-3H-glucose uptake in primary mouse adipocytes; details: 1 uM Wortmannin
Procedure: Mouse and human pre-adipocytes culture and differentiation. Inguinal fat pads from 4-8 week old C57BL/6J male and female mice were dissected and mechanically digested for 10 min using spring scissors. Digested tissues were incubated in WAT isolation buffer (10 ml PBS, 2.4 U/ml dispase II (#04942078001, Roche), 10 mg/ml collagenase D (#11088858001, Roche) at 37° C. for 45 min. 20 mL growth media was added and the tissue suspension was filtered through a 100-μm cell strainer and centrifuged at 600×g for 5 min. The cell pellets were resuspended in 20 mL growth media, filtered through a 40-μm cell strainer, centrifuged at 600×g for 5 min, resuspended in 10 mL growth media, and plated in 10-cm collagen-coated dishes. The cells were cultured in growth media (DMEM/F-12 Glutamax, Thermo Fisher Scientific #10565018) supplemented with 10% fetal bovine serum. Two days post-confluency, differentiation was induced with growth media containing 1 μM rosiglitazone, 0.5 mM isobutylmethylxanthine, 1 μM dexamethasone, 5 μg/mL insulin. After two days, cells were re-fed with growth media containing 1 μM rosiglitazone and 5 μg/mL insulin. Cells were fully differentiated after 6-8 days. […]
Glucose uptake. […] Cells were solubilized in 1% SDS and radioactivity was measured by liquid scintillation counting.

Compound	effect of inhibitor on pAKT^S473 phosphorylation induced by ISM1 and insulin (pAKT^S473 [1])	effect of inhibitor on ISM1-induced pAKT^S473 activity (pAKT^S473 [2])	ISM1-induced glucose uptake in presence of inhibitor (primary mouse adipocytes)
O=c1cc(N2CCOCC2)oc2c(-c3ccccc3)cccc12 [LY294002, reference compound]	completely block	inhibit the ISM1-induced pAKT^S473 activity	–
CO[C@H]1C[C@@H]2CC[C@@H](C)[C@@](O)(O2)C(=O)C(=O)N2CCCC[C@H]2C(=O)O[C@H]([C@H](C)C[C@@H]2CC[C@@H](O)[C@H](OC)C2)CC(=O)[C@H](C)/C=C(\C)[C@@H](O)[C@@H](OC)C(=O)[C@H](C)C[C@H](C)/C=C/C=C/C=C/1C [Rapamycin]	Neither ligand activity is inhibited	–	–
COC[C@H]1OC(=O)c2coc3c2[C@@]1(C)C1=C(C3=O)[C@@H]2CCC(=O)[C@@]2(C)C[C@H]1OC(C)=O [Wortmannin, reference compound]	completely block	inhibit the ISM1-induced pAKT^S473 activity	complete blockade
